Record: PubChem BioAssay AID504786 (Drosophila RNAi Screening Center, 2011)
Purpose: 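Positive regulators of HIF-driven reporter output in Drosophila cells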 (primary screen). Cells: Drosophila S2 cells with a stable HIF luciferase reporter. Reagent: long dsRNA against Drosophila genes, about 0.2 µg dsRNA per well of a 384-well plate. Timing: three days of knock-down, then 20 h of DFO before reading. Challenge: desferrioxamine (DFO) at 100 µM, an iron chelator that mimics hypoxia, for 20 h. Read-out: 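HIF reporter luminescence in cells given 100 µM DFO for 20 h, using the mouse ldh-a hypoxia-response element, scored as per-plate z-scores; higher means greater loss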. Reading the numbers: z-score: higher = stronger loss of HIF reporter signal.
The screen tested about 21,000 reagents; this is an unselected part of those with a known target gene and a result. 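Primary screen; positive scores mean lost reporter signal, so the sign may be inverted from the usual convention.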 Names joined by + are all predicted targets of the reagent. Not all columns of the deposit are shown. Reagent sequences are not shown.

CG16879 (retired record) [DRSC01918]: z-score, replicate 1 = -0.3
pb (proboscipedia) [DRSC12409]: z-score, replicate 1 = -0.2
pb (proboscipedia) [DRSC12629]: z-score, replicate 1 = 2.4
CG33251 (retired record) + CG9915 [DRSC20217]: z-score, replicate 1 = 0.6
CG13064 [DRSC09947]: z-score, replicate 1 = -0.3
CG42269 [DRSC10670]: z-score, replicate 1 = -0.4
CG42269 [DRSC10672]: z-score, replicate 1 = -0.3
Ubc87F (Ubiquitin conjugating enzyme 87F) [DRSC16513]: z-score, replicate 1 = -0.4
fuss (fussel) [DRSC17200]: z-score, replicate 1 = -0.4
CG31445 [DRSC14443]: z-score, replicate 1 = -0.3
CG32202 [DRSC09989]: z-score, replicate 1 = -0.4
CG7166 [DRSC11809]: z-score, replicate 1 = -0.3
eIF5 (eukaryotic translation initiation factor 5) [DRSC20165]: z-score, replicate 1 = 0.3
Gga [DRSC18260]: z-score, replicate 1 = -0.3
SMC5 (Structural maintenance of chromosomes 5) [DRSC11849]: z-score, replicate 1 = -0.3
Gr63a (Gustatory receptor 63a) [DRSC08438]: z-score, replicate 1 = -0.2
Vha100-5 (Vacuolar H[+] ATPase 100kD subunit 5) [DRSC02175]: z-score, replicate 1 = -0.2
HPS4 (Hermansky-Pudlak Syndrome 4) [DRSC06906]: z-score, replicate 1 = -0.1
CG40486 [DRSC20619]: z-score, replicate 1 = 0
hbn (homeobrain) [DRSC04082]: z-score, replicate 1 = 2.6
hbn (homeobrain) [DRSC04238]: z-score, replicate 1 = -0.1
hbn (homeobrain) [DRSC04239]: z-score, replicate 1 = -0.4
CG4960 [DRSC15684]: z-score, replicate 1 = -0.3
mei-41 (meiotic 41) [DRSC20350]: z-score, replicate 1 = 0.2
wcd (wicked) [DRSC07051]: z-score, replicate 1 = -0.2
Sce (Sex combs extra) [DRSC16825]: z-score, replicate 1 = -0.4
JIL-1 (JIL-1 kinase) [DRSC11200]: z-score, replicate 1 = -0.2

Targets listed so far whose gene name begins with H or h (4):
HPS4 (Hermansky-Pudlak Syndrome 4) [DRSC06906]: z-score, replicate 1 = -0.1
hbn (homeobrain) [DRSC04082]: z-score, replicate 1 = 2.6
hbn (homeobrain) [DRSC04238]: z-score, replicate 1 = -0.1
hbn (homeobrain) [DRSC04239]: z-score, replicate 1 = -0.4
